Experimental findings from PMC9552611, “MtTRC-1, a Novel Transcription Factor, Regulates Cellulase Production via Directly Modulating the Genes Expression of the Mthac-1 and Mtcbh-1 in Myceliophthora thermophila” are described below.

For part of these data: Tags and fusion partners may be left off the protein sequences shown. For part of these data: Construct, isoform or probe ends are uncertain for at least one entry.

The first data set addresses T1, GST-MtTRC-1-DBD (Myceliophthora thermophila ATCC 42464) (UniProt G2Q031).
T1 sequence (looked up): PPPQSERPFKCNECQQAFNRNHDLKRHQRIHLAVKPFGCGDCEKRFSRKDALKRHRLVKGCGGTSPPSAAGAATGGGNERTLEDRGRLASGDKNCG
As to the kind of experiment: DNase I footprinting. To be noted: Footprinting: 400 ng probe in 40 uL, 25 C 30 min; recombinant protein; residues 355-450; protein details: GST (N-terminal, pGEX-4T-1); label: FAM; probe letters rebuilt from the primers and the genome; part of a longer molecule.
For the sequence “GCAACATGCCAAAACACGCAGTCAGTGGTCTTAATCGGCAAGACATGAAAGCATTCAAGGCTGAGCAATATGGATGTGTTTTACGACCGTTCTGTCTGTCCGCGGCTTGACTTGTGGGCGTTTCTAGCCTTCTTTTTCTGGAAGTGCCAAACCTACATACATACATTCCACCTCCCAGATCTGGGAGTTGCAAAAGGGGCGCAAGGGGCGCCAAGGGGGGGCATCCATCTCCATTTCAGGGGTTACTTCCGGCGGCCGTTCGGTGGATGTTCCGAGACTTCTT (double strand) [Mthac-1-P7-FP (footprint probe)]”, the binding result is “binds”. For “TGGGCGGCGATGTCACGTTATGGTTGCCACGGCCGGGCACGGACTGAGGGCATCGTTCGAGGACGTGGAGCCGTGCGATGGAAGCGATTAAGGTTGCTGAAGGGTCGGCGAGGGCAACCACACACCTCATTGGAGGAGTCTGGGCGCGGCAGCCAGGTTATCAGGGGTGACACGGAAGGCGTCCGCCGAGTGCGACTCTGCGAAGCCCAGGCCGCCCTGCGGAAGAACCTTGGTTCACGATGCTCTCTGATGACCGCAGAAGAGCGTATTTGACGCTCCGCGCAAATGCGA (double strand) [Mtcbh-1-P4-FP (footprint probe)]”, the binding result is listed as “binds”.

The next data set concerns the target T1, GST-MtTRC-1-DBD (Myceliophthora thermophila ATCC 42464). As to the kind of experiment: EMSA. To be noted: EMSA: 20 mM Tris-base pH 7.5, 20 mM KCl, 10 mM MgCl2, 2 mM DTT, 0.5 ug/uL BSA, 0.2 mg/mL fish sperm DNA, 5% glycerol, 25 C 30 min, 10 ng probe; gel 5% PAGE 0.5x TBE 4 C; recombinant protein; residues 355-450; protein details: GST (N-terminal, pGEX-4T-1); label: Cy5; probe letters rebuilt from the primers and the genome.
As for “AACCGGGTACCTGGTGCCATCTTCAATATACTTGGGAATGCAGCCGCGGTGATTGTCGGTCTGGGCGCAACCTCATCGGCGTTGGCGGGCGATCAGCAGGTGCAACGGGGGGTGCAAACCGGGAAATGAGAAGAGCCCAGACCAACGAGGACCGCGGCATCGACCTCCGATCACCCTAAGTTGGGCCTAGTGCCGCCCCACCAAGGAACGGACCAGGGTAGTTTGCTCCTCCCGATCACTGGTAGTCGTGCCACAGTGCAGCGCATTCAAGGGCAAGCCGCTTTCCCAAATAGAGCAGGAAGGGCTGGTTTCAA (double strand) [Mtcbh-1-P6]”, the binding result is recorded as “binds”. The same measure, in the same setting: next, “AGCGAGATCCGTTGCGAAGGGAAGGGATGGGGTGTGCTGCGGCTTTCTCCGCTCTCGTGCGCCTTTTGCTTGAATCTAGTGTACACCAGGGTAGGCTCCGAAGGAGTATCTACGGCAGCGCTGTTCGTGCTGCGTTGAGAGTCAGGGCGGAGACGAGCAGGCGACAGGAGCCTCGCACCGGCACTTCGGATCGCATTTGCGCGGAGCGTCAAATACGCTCTTCTGCGGTCATCAGAGAGCATCGTGAACCAAGGTTCTTCCGCAGGGCGGCCTGGGCTTCGCAGAGTCGCACTCGGCGGACGCCTTCCGTGTCA (double strand) [Mtcbh-1-P4]”: “binds”; “GGTATCATTACGAGAGGTACTGTACAACGAGGTTCCGTACCGTGGGAGACGGGCCGCGGGCCGTCGATGCTCAAACAAGACGAGTGTGCCAGTCAGCCATCGAATGATGGGTCGTCATGGACAACGGAGCAATGCCATCTCGGGACTGGGGCCACCGACCTGCCGGCAGGGGGAGGAGAAAAAAAAGGGGGCGGCGTCGGCAAGATGGCAAGAGGTCTGGGAGATAGTCAAGGACGAAGGGCCAAGCGGGTCGTGTCGCTTGCACTCTGGTGAGGCTCGCTAGTGCTTGCGGTGGGTGAGGTGGATCAGAGTAGAGG (double strand) [Mtcbh-1-P2]”: “binds”; “ATCTCGGGACTCGCACGACGTAGGAGGACTTATTAGTGCTTTCTGCAAATGGACCGGTGGTTTCTTCTCCTGCCAGGCTGAATAACGGCTGACAAGAGGGCGGTCGGGTGTGATGTGCAGAGCAGTATTATTGTATTGACCGTATCGAGGCGCCTTCCCAATTCCTCAATACTTGTATGTCAGGGAACAAAAGCGTCAAGGGAGTTGCATTGCGCGTGACGAGTCTGTCAAGTTGGCTCGGCCAGCACTGACGACTCGAGCGAACAGCTGGTTGGCTGCGTTGGCGAAGAGGACAGTCTGGCTTCTTTGCTGGGCAAGGAAGGTTCCTGTTCGAATGATGAGGGCTCCAGGCT (double strand) [Mthac-1-P1]”: “binds”. For the sequence “CACTCTGGTGAGGCTCGCTAGTGCTTGCGGTGGGTGAGGTGGATCAGAGTAGAGGCCCGATGGAGAATGGGCGCTGCGGTGACAAGCCTAACCGGTCGATAGCGGCTAGTAGGCTGGGCGGCGATGTCACGTTATGGTTGCCACGGCCGGGCACGGACTGAGGGCATCGTTCGAGGACGTGGAGCCGTGCGATGGAAGCGATTAAGGTTGCTGAAGGGTCGGCGAGGGCAACCACACACCTCATTGGAGGAGTCTGGGCGCGGCAGCCAGGTTATCAGGGGTGACACGGAAGGCGTCCGCCGAGTGCGACTCTGCGAAGCCCAGG (double strand) [Mtcbh-1-P3]”, the binding result is reported as “binds”. Same read-out and setting: the same measure for “CATTCGGCATTGCAGCGGACCGCATCGTCCGCAAAGGCGGAGGCCGGGAAAGTTTCCCGTCTTTGAACTGAATGTAGTGTCTCGTCAATTTTGTTGGCGATGGTGTCGAGCTGATGACGGTGCAGTACGGACAATACTGCACTACGGATTAAAGACGTGTGGAATCATAGTTACTGCAACATGCCAAAACACGCAGTCAGTGGTCTTAATCGGCAAGACATGAAAGCATTCAAGGCTGAGCAATATGGATGTGTTTTACGACCGTTCTGTCTGTCCGCGGCTTGACTTGTGGGCGTTTCTAGCCTTCTTTTTCTGGAAGTGCCAAACCTACATACATACATTCCACCTCCCAGATCTGGGAGTTGCAAAAGGGGCGCAAGGGGCGCCAAGGGGGGGCATCCATCTCCATTTCAGGGGTTACTTCC (double strand) [Mthac-1-P7]”: “binds”; for “TCAAACGGTCGGGCTGCTATTCCAAATATGTCCAAAACATGTTAGTGCACGCAAGACGATCGAGATCAGTGCTGTGAATTACAGCAGCAGCCGCAGCAGCATACACTTCTACACTTAGAAACTGTTGTGTAGCACAGCCGTCGTGTATGTATGCACAACACGAGCGTGGCGCACCCAGCGAAGTCAGCATTAGCTGGAGATTGGCGCACCATTGGCCCACACTCCGCGAGGTTGTCTGATTCAAGTCCGACCGCGTAAGACGTCGCCTTGCAAGCCTTCGTAAAAAAAAAAAAAAAGAGACGCCAAAGCGGCAGTGCAGAAAAGCGGGCACAACCTTAAC (double strand) [Mthac-1-P4]”: “binds”.
